# Source: PubChem BioAssay AID292 (DTP/NCI, 2004)
# The list does not hold the whole screen: it is rich in T/C values a quarter to a half above the control, in often repeated tests (any T/C) and in doses without a T/C. Further doses and runs are listed elsewhere. T/C gives the treated animals as a percentage of the vehicle group. Some entries give survivors of the animals treated and no T/C: the source holds a T/C of zero for them, seemingly a mark for toxic or unscored doses. Some survivor counts are full or nearly so, which does not show that the dose was tolerated: the source hardly ever lists a survival T/C far under the control, and the zero likely stands for such cases as well. Counts of survivors are from the toxicity check (mostly the fifth day) where no day follows; animals may have died later. Schedule codes are those of the source, read here as Q, the interval in days (D) or hours (H), X, the number of doses. Some entries were tested several times; the results are listed from low to high. For survival time, the PubChem record calls one and a half times the control and up active, and a quarter to a half above the control has no call in these data; cut-offs in other NCI protocols can differ. Some T/C values are followed by the survivors on the day toxicity was checked, most often the fifth; without a count, all were alive then.
# System: B6C3F1 mice, ip Sarcoma M5076, median survival T/C
# Test: NCI In Vivo Anticancer Drug Screen. Data for tumor model Sarcoma M5076 (intraperitoneal) in B6C3F1 mice
# Conditions: T/C endpoint: median survival time, higher T/C = longer survival
# Protocol: The antitumor activity of compounds was measured in mice bearing transplantable tumors. Survival or tumor size were measured and the results are expressed as the measurement made in the treated group (T) divided by the measurement made in the vehicle treated control group (C). The tumor model used in this assay is Sarcoma M5076 (intraperitoneal) in B6C3F1 mice
# [1] = dose: 800.0 mg/kg/injection, schedule: Q04DX004 (ip), vehicle: Klucel (hydroxypropylcellulose) (HPC)
# [2] = dose: 800.0 mg/kg/injection, schedule: Q04DX004 (ip), vehicle: saline with Tween-80
# [3] = dose: 400.0 mg/kg/injection, schedule: Q04DX004 (ip), vehicle: saline
# [4] = dose: 100.0 mg/kg/injection, schedule: Q04DX004 (ip), vehicle: Klucel (hydroxypropylcellulose) (HPC)
# [5] = dose: 200.0 mg/kg/injection, schedule: Q04DX004 (ip), vehicle: Klucel (hydroxypropylcellulose) (HPC)
# [6] = dose: 400.0 mg/kg/injection, schedule: Q04DX004 (ip), vehicle: Klucel (hydroxypropylcellulose) (HPC)
structure (smiles),measurement,setting,value
[Cl][Pt][Cl].[NH-]C(CO)C(=O)O (stereo not given),survivor count,"dose: 100.0 mg/kg/injection, schedule: Q04DX004 (ip), vehicle: water",5 of 10 on day 14
same,survivor count,"dose: 200.0 mg/kg/injection, schedule: Q04DX004 (ip), vehicle: water",0 of 10 on day 14
CC(=O)C1C(=O)C(=O)N(c2ccccc2C)C1=O (stereo not given),survivor count,[1],6 of 10 on day 14
O=C(CCl)N1CCN(C/C=C/c2ccccc2)CC1,survivor count,"dose: 300.0 mg/kg/injection, schedule: Q04DX004 (ip), vehicle: saline",6 of 10 on day 14
same,survivor count,"dose: 600.0 mg/kg/injection, schedule: Q04DX004 (ip), vehicle: saline",0 of 10 on day 14
N#CCS(=O)(=O)c1cccc[n+]1[O-],survivor count,"dose: 400.0 mg/kg/injection, schedule: Q04DX004 (ip), vehicle: saline with Tween-80",3 of 9 on day 14
same,survivor count,[2],0 of 10 on day 14
C=C(C)C1C2CC3(C)C4(CO4)C4OC4C3(O)C1C(=O)O2 (stereo not given),survivor count,"dose: 2.0 mg/kg/injection, schedule: Q04DX004 (ip), vehicle: Klucel (hydroxypropylcellulose) (HPC)",3 of 10 on day 14
same,survivor count,"dose: 4.0 mg/kg/injection, schedule: Q04DX004 (ip), vehicle: Klucel (hydroxypropylcellulose) (HPC)",0 of 10 on day 14
CC1(CO)C(O)CCC2(C)C1CCC1CC3CC12CCC3(O)CO (stereo not given),T/C,"dose: 144.0 mg/kg/injection, schedule: Q04DX004 (ip), vehicle: Klucel (hydroxypropylcellulose) (HPC)",137 % of control
same,T/C,"dose: 400.0 mg/kg/injection, schedule: Q04DX005 (ip), vehicle: Klucel (hydroxypropylcellulose) (HPC)",138 % of control [7 of 10 alive on day 14]
same,survivor count,"dose: 666.67 mg/kg/injection, schedule: Q04DX004 (ip), vehicle: Klucel (hydroxypropylcellulose) (HPC)",0 of 10 on day 14 and 5 of 10 on day 14
same,survivor count,"dose: 1111.12 mg/kg/injection, schedule: Q04DX004 (ip), vehicle: Klucel (hydroxypropylcellulose) (HPC)",0 of 10 on day 14
CC#CCOCC(O)CCl (stereo not given),survivor count,[3],10 of 10 on day 14
same,survivor count,"dose: 800.0 mg/kg/injection, schedule: Q04DX004 (ip), vehicle: saline",0 of 10 on day 14
same,survivor count,"dose: 800.0 mg/kg/injection, schedule: Q04DX004 (ip), vehicle: suspension in saline",0 of 10 on day 14
Cc1ncc(CO)c(CO)c1OCC(O)CN1CCN(C(=O)c2ccccc2)CC1 (stereo not given),survivor count,"dose: 200.0 mg/kg/injection, schedule: Q04DX004 (ip), vehicle: saline",4 of 10 on day 14
same,survivor count,[3],3 of 10 on day 14
CCOc1c2c(nn(C)c1=O)Oc1ccccc1N2CCCN1CCOCC1,survivor count,"dose: 120.0 mg/kg/injection, schedule: Q04DX004 (ip), vehicle: saline with Tween-80",0 of 10 on day 14
[Cl][Hg][Cl],survivor count,"dose: 0.19 mg/kg/injection, schedule: Q04DX004 (ip), vehicle: saline",8 of 10 on day 14
same,survivor count,"dose: 6.0 mg/kg/injection, schedule: Q04DX004 (ip), vehicle: saline",4 of 10 on day 14
same,survivor count,"dose: 6.25 mg/kg/injection, schedule: Q04DX004 (ip), vehicle: saline",1 of 10 on day 14
same,survivor count,"dose: 12.5 mg/kg/injection, schedule: Q04DX004 (ip), vehicle: saline",0 of 10 on day 14
COc1cc2c(c3c1c(=O)c1ccccc1n3C)C=C([N+](=O)[O-])C(C)(C)O2,survivor count,"dose: 100.0 mg/kg/injection, schedule: Q04DX004 (ip), vehicle: saline + Tween-80 + alcohol",1 of 10 on day 14
same,survivor count,"dose: 200.0 mg/kg/injection, schedule: Q04DX004 (ip), vehicle: saline + Tween-80 + alcohol",0 of 10 on day 14
O=[N+]([O-])c1ccc([I+]c2ccccc2)cc1,survivor count,[4],5 of 10 on day 9
Nc1ncnc2c1c1c(=O)[nH]c(=O)[nH]c1n2C1OC(CO)C(O)C1O (stereo not given),T/C,"dose: 400.0 mg/kg/injection, schedule: Q04DX004 (ip), vehicle: distilled water + Tween-80",133 % of control
same,survivor count,"dose: 800.0 mg/kg/injection, schedule: Q04DX004 (ip), vehicle: distilled water + Tween-80",2 of 10 on day 14 and 4 of 10 on day 14
CCc1ccccc1N1CCN(C(=O)c2cc(OC)c(OC)c(OC)c2)CC1,T/C,[5],131 % of control
same,T/C,[6],139 % of control
CC1=C(/C=C/C(C)=C/C=C/C(C)=C/C=O)C(C)(C)CCC1,survivor count,"dose: 300.0 mg/kg/injection, schedule: Q04DX004 (ip), vehicle: saline + alcohol",9 of 10 on day 14
same,survivor count,"dose: 600.0 mg/kg/injection, schedule: Q04DX004 (ip), vehicle: saline + alcohol",0 of 10 on day 14
same,survivor count,"dose: 1200.0 mg/kg/injection, schedule: Q04DX004 (ip), vehicle: saline + alcohol",0 of 10 on day 14
O=c1[nH]c2cc3c(cc2n2cccc12)oc1ccccc13,survivor count,"dose: 25.0 mg/kg/injection, schedule: Q04DX004 (ip), vehicle: saline with Tween-80",10 of 10 on day 14
same,survivor count,"dose: 200.0 mg/kg/injection, schedule: Q04DX004 (ip), vehicle: saline with Tween-80",9 of 10 on day 14
N#Cc1c(N)[nH]c2ccc(Sc3ccccc3)cc12,T/C,"dose: 100.0 mg/kg/injection, schedule: Q04DX004 (ip), vehicle: saline with Tween-80",126 % of control [9 of 10 alive on day 14]
same,T/C,"dose: 167.0 mg/kg/injection, schedule: Q04DX004 (ip), vehicle: saline with Tween-80",125 % of control [9 of 10 alive on day 14]
same,survivor count,"dose: 278.0 mg/kg/injection, schedule: Q04DX004 (ip), vehicle: saline with Tween-80",6 of 10 on day 14
O=C(Nc1ccccc1[N+](=O)[O-])C1C(=O)C(=O)N(c2ccccc2[N+](=O)[O-])C1=O (stereo not given),survivor count,[6],4 of 10 on day 14
same,survivor count,[1],0 of 10 on day 14
COc1ccccc1N1C(=O)C(=O)C(C(C)=O)C1=O (stereo not given),survivor count,"dose: 700.0 mg/kg/injection, schedule: Q04DX004 (ip), vehicle: Klucel (hydroxypropylcellulose) (HPC)",4 of 10 on day 14
O=C(NNC(=O)c1cccc(C(=O)NNC(=O)c2ccc(Cl)c(Cl)c2)n1)c1ccc(Cl)c(Cl)c1,survivor count,[4],6 of 10 on day 14
same,survivor count,[5],7 of 10 on day 14
same,survivor count,[6],2 of 10 on day 14
N[C@@H](Cc1c[nH]c2ccccc12)C(=O)Nc1nncs1,survivor count,"dose: 1600.0 mg/kg/injection, schedule: Q04DX004 (ip), vehicle: suspension in saline",0 of 10 on day 14
CC(=O)OCc1cc(-c2nc3ccccc3[nH]c2=O)nn1-c1ccc(Cl)cc1,survivor count,"dose: 50.0 mg/kg/injection, schedule: Q04DX004 (ip), vehicle: distilled water + alcohol",10 of 10 on day 14
same,survivor count,"dose: 100.0 mg/kg/injection, schedule: Q04DX004 (ip), vehicle: distilled water + alcohol",8 of 10 on day 14 and 10 of 10 on day 14
same,survivor count,"dose: 200.0 mg/kg/injection, schedule: Q04DX004 (ip), vehicle: distilled water + alcohol",5 of 10 on day 14
same,survivor count,"dose: 400.0 mg/kg/injection, schedule: Q04DX004 (ip), vehicle: distilled water + alcohol",10 of 10 on day 14
NCc1cc(O)c(O)c(O)c1,survivor count,"dose: 1200.0 mg/kg/injection, schedule: Q04DX004 (ip), vehicle: saline",5 of 10 on day 14
Cc1cn(C2CC(F)C(CO)O2)c(=O)[nH]c1=O (stereo not given),T/C,"dose: 1200.0 mg/kg/injection, schedule: Q04DX004 (ip), vehicle: suspension in saline",126 % of control
CO[C@@H]1C2=CC=CC=C[C@H]2n2c(=O)n(C)c(=O)n21,survivor count,"dose: 600.0 mg/kg/injection, schedule: Q04DX004 (ip), vehicle: other",0 of 10 on day 14
COCCCNC1=C(C#N)C(=O)NC2(CCCC2)S1,survivor count,[2],5 of 10 on day 14
Cc1c2ccccc2c(C)c2c1cc(C(=O)O)c1ccccc12,T/C,"dose: 100.0 mg/kg/injection, schedule: Q04DX004 (ip), vehicle: sodium bicarbonate",133 % of control
same,T/C,"dose: 400.0 mg/kg/injection, schedule: Q04DX004 (ip), vehicle: sodium bicarbonate",128 % of control
ClCCCN1CCN(CCCl)CC1,T/C,"dose: 2.5 mg/kg/injection, schedule: Q04DX004 (ip), vehicle: saline with Tween-80",131 % of control
same,T/C,"dose: 5.0 mg/kg/injection, schedule: Q04DX004 (ip), vehicle: saline with Tween-80",140 % of control
same,survivor count,"dose: 40.0 mg/kg/injection, schedule: Q04DX004 (ip), vehicle: saline with Tween-80",0 of 10 on day 14
CCc1c(C)c(SC)n(C)c(=O)c1C#N,survivor count,[2],6 of 10 on day 14
OC1OCC(COc2ccc(Cl)cc2)OC1O (stereo not given),survivor count,[2],0 of 10 on day 14
